No constants are given. Whether binding was seen depends on the method and setting. Some binding calls cover weakened binding; strength is not graded here.
Biological target: T1, yeast Scc1 (subunit of the purified tetramers) (S. cerevisiae) (UniProt Q12158)
T1 sequence: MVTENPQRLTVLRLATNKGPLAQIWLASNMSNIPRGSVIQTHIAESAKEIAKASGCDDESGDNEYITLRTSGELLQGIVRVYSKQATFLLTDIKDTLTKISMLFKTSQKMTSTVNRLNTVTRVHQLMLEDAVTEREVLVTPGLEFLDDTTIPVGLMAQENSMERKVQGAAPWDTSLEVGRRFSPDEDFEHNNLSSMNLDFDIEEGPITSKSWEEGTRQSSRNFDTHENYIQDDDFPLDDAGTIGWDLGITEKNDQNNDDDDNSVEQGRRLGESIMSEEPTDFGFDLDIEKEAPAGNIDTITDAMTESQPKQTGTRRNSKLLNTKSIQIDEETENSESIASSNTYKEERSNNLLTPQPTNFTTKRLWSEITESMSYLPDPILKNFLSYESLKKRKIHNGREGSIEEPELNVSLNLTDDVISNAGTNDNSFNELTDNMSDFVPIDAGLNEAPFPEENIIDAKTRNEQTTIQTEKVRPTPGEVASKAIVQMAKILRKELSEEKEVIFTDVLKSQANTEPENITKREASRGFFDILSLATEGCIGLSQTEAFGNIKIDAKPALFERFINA
Experiment: co-purification

binding: binds
B1: yeast Scc3 (subunit of the purified tetramers) (protein, UniProt P40541 1-1150)
chain: MTAVRRSTRIRTKSQVIEEDYDDEQNTSAQHVESDKITAKTQHEEEEEQDTGESEESSSEDDYEDQDDDDYVDTATAKRKSRKRKPKSASNTSSKRQKKKPTSAQKSAVSHAPAYHRSKKDQDQYLEIAKDFQPTELFDILSTSEDVSIEELLREWLETYSENRDKFLQEFINLLLNCCGSVARVEDHDVHSNESSNETIGEIQLLFQRQKLHEFYLLISKENKKRKNFKMGPLYQNFAEFMTKLLEVANDLQLLYVESDEDDTQIVTGNLVLDLLTWLSSFSVCKIRCFRYISTLTLYLFQDYLTQQAVNLEKNYLAKLSKQLSLEEKKKRPNNKTLEKLESTIAETQGSKVVIDSIIDNIVKLCFVHRYKDVSDLIRSESMLHLSIWIKNYPEYFLKVTFLKYFGWLLSDNSVSVRLQVTKILPHLIIQNHNSKSTDNSAIRQVFERFKTKILEVAIRDVNLDVRIHSIQVLTEASSLGYLDDSEILIISSLMFDEEFDPFKTSSFNKRSKFLSTVAKFLARVIKEKFDEFIKTHEDLPKEVDGLEVGPVVQVGIFIKILNDSLIYHLKDCAEVDSRTKIRMLTQAAEFLSPYISTHLKTICNLLISDTESNELIQKLQNSANNNSDDEDVDDEELDITPLFPIDRNSTILYLNVFHGLCAGANNPKIQTKDSVKEIVLPLFYDLLNAASIESADILCPLLESFITFSLDDWISIGYETELKKITDKTIKAFMDSTIGNSKVDMKYDIFAKFIHHIHHFEKKELQEKFLNQIATLKIHLKKFLQEKMDPNNSRDDYKDLTCSLYELYINKLTILGRDYPIEVDEELLQLFLNNFVSRIPIMFQDFDDSTAQEINFKMLVLLATWNLEKWREIIEKVRDYENSISKDLRSVWKPIAAIIGRLNTLVISLAATNETFENINSLFYLKWSACTSLMDIIVAIKIFELKLPADATTWRYSMSEQFPFYLHDNASKVLLKIFLYLESLFAKQVDVQLERVADEDANLNDLPETGFFENIETEFLLFTVKLKGLMKLNILDERFASRVALNKEKLGPLFKKIVDDTIMENPEPNKKNIQKAKSNQTQREKAPLQPNSERETDHANTENNDPDIPMTIDLEPIEESSQNNSELAPIEEHPTVVDAIDNSDEITQD

Reference: doi:10.1101/197848
